Data taken from patent US9357779B2 (priority 2010, dated 2016).
Some entries share one result that the patent states for a list of compounds.

Legend:
Phytophthora infestans = type: in vivo; settings: tomato plants, protective, active compound concentration 500 ppm, evaluation 7 days after inoculation
Plasmopara viticola = assay: Plasmopara test (grapevine)/protective; type: in vivo; settings: protective, active compound concentration 100 ppm, evaluation 6 days after inoculation
Experimental: Plasmopara Test (Grapevine)/Protective
To produce a suitable preparation of active compound, 1 part by weight of active compound is mixed with the stated amounts of solvent and emulsifier, and the concentrate is diluted with water to the desired concentration.
To test for protective activity, young plants are sprayed with the preparation of active compound at the stated application rate. After the spray coating has dried on, the plants are inoculated with an aqueous spore suspension of Plasmopara viticola and then remain in an incubation cabin at about 20° C. and 100% relative atmospheric humidity for 1 day. The plants are then placed in a greenhouse at about 21° C. and about 90% atmospheric humidity for 4 days. The plants are then moistened and placed in an incubation cabin for 1 day.
Evaluation is carried out 6 days after the inoculation. 0% means an efficacy which corresponds to that of the control, whereas an efficacy of 100% means that no infection is observed.

| Structure (SMILES) | efficacy (Phytophthora infestans) | efficacy (Plasmopara viticola) |
| --- | --- | --- |
| Cc1cc(C(F)(F)F)nn1CC(=O)N1CCC(c2nc(C(=O)CC(C)(C)c3ccccc3)cs2)CC1 [Compound I-15] | ≥ 70% | – |
| Cc1cc(C(F)(F)F)nn1CC(=O)N1CCC(c2nc(C#CC(=O)c3cccc4ccccc34)cs2)CC1 [Compound I-3] | ≥ 70% | ≥ 70% |
| COc1ccccc1C(=O)C#Cc1csc(C2CCN(C(=O)Cn3nc(C(F)(F)F)cc3C)CC2)n1 [Compound I-2] | ≥ 70% | – |
| Cc1cc(C(F)(F)F)nn1CC(=O)N1CCC(c2nc(C(=O)CCc3ccccc3)cs2)CC1 [Compound I-14, 1-[2-(1-{[5-Methyl-3-(trifluoromethyl)-1H-pyrazol-1-yl]acetyl}piperidin-4-yl)-1,3-thiazol-4-yl]-3-phenylpropan-1-one] | ≥ 70% | ≥ 70% |
| Cc1cc(C(F)(F)F)nn1CC(=O)N1CCC(c2nc(C#CC(=O)c3ccc(Cl)cc3Cl)cs2)CC1 [Compound I-6] | ≥ 70% | – |
| Cc1cc(C(F)(F)F)nn1CC(=O)N1CCC(c2nc(C(=O)CC3CCCCC3)cs2)CC1 [Compound I-17] | ≥ 70% | ≥ 70% |
| COc1ccccc1C(=O)CCc1csc(C2CCN(C(=O)Cn3nc(C(F)(F)F)cc3C)CC2)n1 [Compound I-19] | ≥ 70% | ≥ 70% |
| Cc1cc(C(F)(F)F)nn1CC(=O)N1CCC(c2nc(CCC(=O)c3ccccc3Cl)cs2)CC1 [Compound I-21] | ≥ 70% | ≥ 70% |
| CCOc1ccccc1C(=O)CCc1csc(C2CCN(C(=O)Cn3nc(C(F)(F)F)cc3C)CC2)n1 [Compound I-20, 1-(2-Ethoxyphenyl)-3-[2-(1-{[5-methyl-3-(trifluoromethyl)-1H-pyrazol-1-yl]acetyl}piperidin-4-yl)-1,3-thiazol-4-yl]propan-1-one] | ≥ 70% | ≥ 70% |
| Cc1cc(C(F)(F)F)nn1CC(=O)N1CCC(c2nc(C#CC(=O)c3ccccc3Cl)cs2)CC1 [Compound I-5] | ≥ 70% | – |
| Cc1cc(C(F)(F)F)nn1CC(=O)N1CCC(c2nc(C(=O)Cc3ccccc3)cs2)CC1 [Compound I-16] | – | ≥ 70% |
| Cc1cc(C(F)(F)F)nn1CC(=O)N1CCC(c2nc(C#CC(=O)C3CCCCC3)cs2)CC1 [Compound I-4] | ≥ 70% | – |
| COc1ccc(C(=O)C#Cc2csc(C3CCN(C(=O)Cn4nc(C(F)(F)F)cc4C)CC3)n2)cc1 [Compound I-7] | ≥ 70% | – |
| Cc1cc(C(F)(F)F)nn1CC(=O)N1CCC(c2nc(C(=O)Cc3ccccc3Br)cs2)CC1 [Compound I-13] | ≥ 70% | ≥ 70% |
| CCOc1ccccc1C(=O)C#Cc1csc(C2CCN(C(=O)Cn3nc(C(F)(F)F)cc3C)CC2)n1 [Compound I-11, 1-(2-Ethoxyphenyl)-3-[2-(1-{[5-methyl-3-(trifluoromethyl)-1H-pyrazol-1-yl]acetyl}piperidin-4-yl)-1,3-thiazol-4-yl]prop-2-yn-1-one] | ≥ 70% | ≥ 70% |
| Cc1cc(C(F)(F)F)nn1CC(=O)N1CCC(c2nc(C(=O)Cc3cccc4ccccc34)cs2)CC1 [Compound I-18] | ≥ 70% | ≥ 70% |
| Cc1cc(C(F)(F)F)nn1CC(=O)N1CCC(c2nc(C#CC(=O)C(C)(C)C)cs2)CC1 [Compound I-8] | ≥ 70% | – |
